± gives the standard deviation of the averaged measurements. The list shows a part of the results, in another mix than the full data. Most entries show no effect beyond the scatter of the controls.
Compound: Nc1ncnc2c1ncn2[C@@H]1O[C@H](COP(=O)(O)OP(=O)(O)OP(=O)(O)O)[C@@H](O)[C@H]1O [adenosine triphosphate]
Assay: NP40-soluble protein abundance relative to vehicle (solubility fold change) (ratio); higher = more soluble protein in presence of ATP
Summary of the method: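 Data come from three independent experiments in which Dounce-homogenised Jurkat crude lysate was treated at eight concentrations from 0.1 to 10 mM. Treatment ran 10 min at room temperature and then 3 min at 37 °C, after which 0.8% NP40 and benzonase were added for 60 min at 4 °C before ultracentrifugation. The supernatant underwent TMT labelling and LC-MS/MS, and vsn-normalised intensities were expressed as fold change against the detergent-processed vehicle in each replicate.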

Amino acid sequences for entries named in this document (tags omitted). A change or cut given only in a name is not applied to a line headed by its entry.
UniProt Q9UPR3: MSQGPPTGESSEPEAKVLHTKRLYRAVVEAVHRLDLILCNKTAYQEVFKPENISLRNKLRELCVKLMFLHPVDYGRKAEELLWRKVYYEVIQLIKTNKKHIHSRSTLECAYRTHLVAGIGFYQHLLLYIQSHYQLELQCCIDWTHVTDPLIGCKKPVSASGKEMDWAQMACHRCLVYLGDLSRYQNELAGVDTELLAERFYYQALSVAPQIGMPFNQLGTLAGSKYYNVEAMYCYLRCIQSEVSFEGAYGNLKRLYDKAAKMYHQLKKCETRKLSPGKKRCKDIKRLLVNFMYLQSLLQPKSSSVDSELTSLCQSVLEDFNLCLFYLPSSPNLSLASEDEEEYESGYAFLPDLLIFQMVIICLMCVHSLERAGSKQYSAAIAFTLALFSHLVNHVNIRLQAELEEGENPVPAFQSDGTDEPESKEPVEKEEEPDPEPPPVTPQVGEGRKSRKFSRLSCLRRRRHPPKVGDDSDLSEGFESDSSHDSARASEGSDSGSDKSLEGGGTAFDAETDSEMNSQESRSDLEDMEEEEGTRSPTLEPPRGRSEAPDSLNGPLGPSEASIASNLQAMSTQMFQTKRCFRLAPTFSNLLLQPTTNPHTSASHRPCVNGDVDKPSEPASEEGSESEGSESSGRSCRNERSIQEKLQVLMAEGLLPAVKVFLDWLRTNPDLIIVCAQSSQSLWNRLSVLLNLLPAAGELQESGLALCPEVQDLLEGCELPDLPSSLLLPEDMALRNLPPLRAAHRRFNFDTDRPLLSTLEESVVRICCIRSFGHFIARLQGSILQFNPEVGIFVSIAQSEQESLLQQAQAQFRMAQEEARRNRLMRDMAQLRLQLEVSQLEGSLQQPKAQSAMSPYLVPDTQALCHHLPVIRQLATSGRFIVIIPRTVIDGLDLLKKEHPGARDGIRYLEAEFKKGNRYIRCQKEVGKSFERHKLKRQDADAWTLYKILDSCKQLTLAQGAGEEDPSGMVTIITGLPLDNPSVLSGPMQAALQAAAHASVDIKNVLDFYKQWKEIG
UniProt Q9UQ84: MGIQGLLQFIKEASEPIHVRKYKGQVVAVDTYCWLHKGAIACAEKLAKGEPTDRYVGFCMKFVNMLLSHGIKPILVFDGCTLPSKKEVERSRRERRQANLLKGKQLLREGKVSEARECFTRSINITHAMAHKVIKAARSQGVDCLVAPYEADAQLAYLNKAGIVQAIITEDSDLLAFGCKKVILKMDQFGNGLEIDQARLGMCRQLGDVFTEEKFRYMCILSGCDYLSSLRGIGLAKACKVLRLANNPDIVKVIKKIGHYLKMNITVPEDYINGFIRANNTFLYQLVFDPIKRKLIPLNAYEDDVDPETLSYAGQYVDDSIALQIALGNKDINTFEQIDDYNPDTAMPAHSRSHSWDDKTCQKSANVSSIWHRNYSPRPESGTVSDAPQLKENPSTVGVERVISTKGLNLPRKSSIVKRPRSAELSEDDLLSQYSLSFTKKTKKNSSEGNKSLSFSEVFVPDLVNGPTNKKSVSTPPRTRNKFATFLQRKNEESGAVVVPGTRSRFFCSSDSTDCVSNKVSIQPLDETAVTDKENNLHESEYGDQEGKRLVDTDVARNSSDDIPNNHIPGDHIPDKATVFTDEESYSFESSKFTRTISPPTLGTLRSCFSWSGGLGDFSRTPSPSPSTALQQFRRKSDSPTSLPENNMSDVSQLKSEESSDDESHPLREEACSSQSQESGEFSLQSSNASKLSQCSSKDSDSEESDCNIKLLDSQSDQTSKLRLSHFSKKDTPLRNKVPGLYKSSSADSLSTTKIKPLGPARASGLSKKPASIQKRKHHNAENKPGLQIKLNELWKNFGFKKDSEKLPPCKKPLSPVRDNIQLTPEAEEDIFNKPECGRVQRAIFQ
UniProt Q9P2J5: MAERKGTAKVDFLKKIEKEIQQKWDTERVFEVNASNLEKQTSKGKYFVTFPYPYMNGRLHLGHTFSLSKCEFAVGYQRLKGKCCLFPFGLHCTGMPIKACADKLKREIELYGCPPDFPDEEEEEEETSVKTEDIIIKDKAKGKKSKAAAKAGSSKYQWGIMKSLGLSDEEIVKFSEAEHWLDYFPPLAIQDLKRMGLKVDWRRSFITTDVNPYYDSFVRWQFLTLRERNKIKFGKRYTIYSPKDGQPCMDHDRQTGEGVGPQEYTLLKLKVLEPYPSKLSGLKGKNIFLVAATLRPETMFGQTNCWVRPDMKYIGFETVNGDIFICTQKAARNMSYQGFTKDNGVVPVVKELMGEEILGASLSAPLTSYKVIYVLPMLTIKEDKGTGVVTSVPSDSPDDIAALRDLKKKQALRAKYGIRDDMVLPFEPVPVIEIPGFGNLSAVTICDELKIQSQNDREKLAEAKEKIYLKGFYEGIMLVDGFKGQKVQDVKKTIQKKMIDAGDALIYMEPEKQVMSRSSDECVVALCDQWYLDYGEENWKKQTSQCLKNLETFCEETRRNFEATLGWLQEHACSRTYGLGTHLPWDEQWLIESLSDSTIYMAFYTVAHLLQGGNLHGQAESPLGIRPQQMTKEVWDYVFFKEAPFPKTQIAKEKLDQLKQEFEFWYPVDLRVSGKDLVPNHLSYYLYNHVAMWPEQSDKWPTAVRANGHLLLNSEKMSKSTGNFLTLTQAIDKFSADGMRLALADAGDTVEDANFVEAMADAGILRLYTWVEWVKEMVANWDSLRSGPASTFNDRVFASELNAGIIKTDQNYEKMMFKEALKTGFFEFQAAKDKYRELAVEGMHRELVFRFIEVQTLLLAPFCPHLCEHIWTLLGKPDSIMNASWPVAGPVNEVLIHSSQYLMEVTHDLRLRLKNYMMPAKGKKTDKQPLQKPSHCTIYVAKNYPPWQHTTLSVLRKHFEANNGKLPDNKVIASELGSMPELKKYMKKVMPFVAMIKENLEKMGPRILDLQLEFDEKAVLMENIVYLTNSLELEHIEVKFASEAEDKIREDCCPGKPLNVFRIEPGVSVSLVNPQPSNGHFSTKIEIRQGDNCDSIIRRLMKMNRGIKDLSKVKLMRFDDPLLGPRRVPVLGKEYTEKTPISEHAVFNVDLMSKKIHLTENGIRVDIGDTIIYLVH
UniProt Q9UPU5: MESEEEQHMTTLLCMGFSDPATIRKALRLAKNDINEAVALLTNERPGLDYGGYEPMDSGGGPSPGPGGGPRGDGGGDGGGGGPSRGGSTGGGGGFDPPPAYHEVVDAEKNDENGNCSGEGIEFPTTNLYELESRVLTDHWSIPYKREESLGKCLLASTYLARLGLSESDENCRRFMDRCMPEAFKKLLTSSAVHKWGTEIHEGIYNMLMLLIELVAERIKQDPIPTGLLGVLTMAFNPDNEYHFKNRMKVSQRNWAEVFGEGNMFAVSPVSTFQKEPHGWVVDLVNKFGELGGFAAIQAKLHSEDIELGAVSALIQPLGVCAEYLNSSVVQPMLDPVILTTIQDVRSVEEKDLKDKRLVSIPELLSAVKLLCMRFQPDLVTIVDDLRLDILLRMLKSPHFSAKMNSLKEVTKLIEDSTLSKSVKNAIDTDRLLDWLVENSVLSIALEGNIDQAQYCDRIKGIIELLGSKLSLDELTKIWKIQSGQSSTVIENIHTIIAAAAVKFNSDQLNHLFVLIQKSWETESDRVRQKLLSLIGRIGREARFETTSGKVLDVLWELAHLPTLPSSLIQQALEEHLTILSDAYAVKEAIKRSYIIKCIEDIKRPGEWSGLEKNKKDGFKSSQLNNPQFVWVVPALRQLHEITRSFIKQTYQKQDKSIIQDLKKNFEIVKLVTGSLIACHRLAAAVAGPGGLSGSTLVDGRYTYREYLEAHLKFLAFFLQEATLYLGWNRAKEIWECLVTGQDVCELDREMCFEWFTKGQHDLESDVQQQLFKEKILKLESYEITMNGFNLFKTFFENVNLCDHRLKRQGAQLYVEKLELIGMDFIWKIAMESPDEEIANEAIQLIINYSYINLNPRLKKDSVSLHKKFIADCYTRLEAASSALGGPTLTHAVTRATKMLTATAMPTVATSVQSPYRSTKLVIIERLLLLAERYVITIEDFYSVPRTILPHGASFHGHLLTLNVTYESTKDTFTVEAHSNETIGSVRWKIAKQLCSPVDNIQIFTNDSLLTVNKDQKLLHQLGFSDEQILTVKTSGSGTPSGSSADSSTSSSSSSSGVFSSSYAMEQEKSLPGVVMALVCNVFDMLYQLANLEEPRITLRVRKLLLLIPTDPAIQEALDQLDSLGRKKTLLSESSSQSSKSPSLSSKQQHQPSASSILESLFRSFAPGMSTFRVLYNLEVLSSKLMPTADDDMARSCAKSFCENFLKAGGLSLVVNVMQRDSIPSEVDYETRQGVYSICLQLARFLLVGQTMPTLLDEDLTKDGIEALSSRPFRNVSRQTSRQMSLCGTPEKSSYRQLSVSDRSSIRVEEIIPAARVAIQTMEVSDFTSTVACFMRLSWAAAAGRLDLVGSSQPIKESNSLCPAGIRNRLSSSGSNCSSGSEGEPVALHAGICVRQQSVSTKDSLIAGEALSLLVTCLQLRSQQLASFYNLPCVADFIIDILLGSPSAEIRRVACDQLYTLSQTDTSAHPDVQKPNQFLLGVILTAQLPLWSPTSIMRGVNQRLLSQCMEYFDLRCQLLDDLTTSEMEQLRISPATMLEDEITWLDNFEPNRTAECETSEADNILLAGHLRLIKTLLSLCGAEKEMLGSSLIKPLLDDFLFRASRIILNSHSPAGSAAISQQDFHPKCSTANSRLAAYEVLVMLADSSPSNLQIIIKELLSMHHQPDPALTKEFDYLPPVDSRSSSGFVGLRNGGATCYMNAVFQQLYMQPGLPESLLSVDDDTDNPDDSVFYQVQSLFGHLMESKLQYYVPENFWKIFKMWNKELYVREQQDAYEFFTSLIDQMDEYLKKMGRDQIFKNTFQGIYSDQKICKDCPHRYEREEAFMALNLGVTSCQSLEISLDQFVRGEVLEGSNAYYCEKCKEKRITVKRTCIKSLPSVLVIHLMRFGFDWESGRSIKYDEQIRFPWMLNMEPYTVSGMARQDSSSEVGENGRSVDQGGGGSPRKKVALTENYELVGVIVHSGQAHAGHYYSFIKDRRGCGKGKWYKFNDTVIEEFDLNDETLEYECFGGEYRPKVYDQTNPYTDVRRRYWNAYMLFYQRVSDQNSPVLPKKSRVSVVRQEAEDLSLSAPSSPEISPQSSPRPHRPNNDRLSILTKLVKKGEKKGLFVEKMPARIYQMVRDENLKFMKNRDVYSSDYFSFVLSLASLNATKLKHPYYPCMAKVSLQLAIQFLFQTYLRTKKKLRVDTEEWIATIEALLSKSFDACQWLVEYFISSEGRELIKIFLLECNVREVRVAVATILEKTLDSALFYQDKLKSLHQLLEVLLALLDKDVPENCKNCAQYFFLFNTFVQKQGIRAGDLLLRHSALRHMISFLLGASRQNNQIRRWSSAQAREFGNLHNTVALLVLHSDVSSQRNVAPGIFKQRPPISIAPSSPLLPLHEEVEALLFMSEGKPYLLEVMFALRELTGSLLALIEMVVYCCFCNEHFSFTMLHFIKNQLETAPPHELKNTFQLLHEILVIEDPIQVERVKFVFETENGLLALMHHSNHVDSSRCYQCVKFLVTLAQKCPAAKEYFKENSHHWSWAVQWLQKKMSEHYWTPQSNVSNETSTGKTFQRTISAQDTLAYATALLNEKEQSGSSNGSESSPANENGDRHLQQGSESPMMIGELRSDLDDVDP
UniProt Q9P258, whole entry: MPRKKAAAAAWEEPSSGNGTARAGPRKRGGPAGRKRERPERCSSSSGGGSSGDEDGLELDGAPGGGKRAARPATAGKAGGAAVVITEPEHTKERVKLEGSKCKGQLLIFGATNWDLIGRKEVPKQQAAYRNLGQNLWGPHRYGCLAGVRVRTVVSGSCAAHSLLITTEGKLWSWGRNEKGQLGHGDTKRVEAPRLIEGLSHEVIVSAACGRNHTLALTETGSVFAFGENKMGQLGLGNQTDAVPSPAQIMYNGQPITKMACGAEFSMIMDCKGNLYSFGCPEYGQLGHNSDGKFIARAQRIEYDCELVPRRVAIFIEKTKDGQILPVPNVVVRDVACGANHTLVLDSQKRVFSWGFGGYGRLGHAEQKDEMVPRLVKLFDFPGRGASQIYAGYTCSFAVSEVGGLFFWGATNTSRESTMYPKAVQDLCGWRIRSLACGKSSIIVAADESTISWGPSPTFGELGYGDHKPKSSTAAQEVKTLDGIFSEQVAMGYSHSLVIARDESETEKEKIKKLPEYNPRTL
UniProt Q9Y248: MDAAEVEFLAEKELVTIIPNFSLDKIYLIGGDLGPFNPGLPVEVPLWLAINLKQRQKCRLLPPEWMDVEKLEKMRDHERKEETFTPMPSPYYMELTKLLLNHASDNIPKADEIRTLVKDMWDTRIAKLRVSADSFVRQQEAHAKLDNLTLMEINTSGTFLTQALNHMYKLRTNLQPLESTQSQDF
UniProt Q9UIJ7: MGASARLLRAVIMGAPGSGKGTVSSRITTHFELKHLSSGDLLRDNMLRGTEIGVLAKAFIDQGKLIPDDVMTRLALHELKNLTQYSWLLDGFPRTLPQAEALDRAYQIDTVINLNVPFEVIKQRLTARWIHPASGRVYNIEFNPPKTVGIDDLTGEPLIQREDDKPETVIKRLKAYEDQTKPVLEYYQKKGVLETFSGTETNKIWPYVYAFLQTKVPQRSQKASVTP

Target	NP40-soluble protein abundance (concentration: 0.1mM)	NP40-soluble protein abundance (concentration: 0.5mM)
UniProt Q9UKT9 and related entries	1.12 ± 0.075	1.13 ± 0.08
UniProt Q9UL18 and related entries	1.02 ± 0.073	1.06 ± 0.079
VDAC3 (UniProt Q9Y277)	0.995 ± 0.091	1.04 ± 0.02
NUDC (UniProt Q9Y266)	0.959 ± 0.013	0.983 ± 0.03
UniProt Q9UH92 and related entries	0.973 ± 0.056	1.04 ± 0.039
AFF4 (UniProt Q9UHB7)	1.023 ± 0.0061	1.05 ± 0.065
SMG5 (UniProt Q9UPR3)	1.07 ± 0.025	0.966 ± 0.012
TTF2 (UniProt Q9UNY4)	0.996 ± 0.018	1.02 ± 0.035
UniProt Q9Y250 and related entries	1.02 ± 0.067	1 ± 0.088
UniProt Q9UPT9 and related entries	1.02 ± 0.051	1.04 ± 0.03
TBK1 (UniProt Q9UHD2)	1.04 ± 0.048	1.03 ± 0.06
UniProt Q9UQ84 and related entries	0.918 ± 0.056	1.025 ± 0.0075
UniProt Q9UMZ2-3|Q9UMZ2-4|Q9UMZ2-5|Q9UMZ2-6|Q9UMZ2-7|Q9UMZ2-8|Q9UMZ2-9|Q9UMZ2	0.963 ± 0.015	0.949 ± 0.043
LARS (UniProt Q9P2J5)	1.04 ± 0.044	1.03 ± 0.038
UniProt Q9UKA8 and related entries	0.964 ± 0.087	0.93 ± 0.12
UniProt Q9UK61 and related entries	1.03 ± 0.019	1.08 ± 0.045
UniProt Q9UH03 and related entries	0.998 ± 0.033	1.07 ± 0.028
TFIP11 (UniProt Q9UBB9)	1.02 ± 0.044	1.07 ± 0.045
UniProt Q9UJK0	0.961 ± 0.085	0.832 ± 0.18
UBA2 (UniProt Q9UBT2)	1 ± 0.041	1.02 ± 0.036
DNAJB4 (UniProt Q9UDY4)	0.957 ± 0.036	0.897 ± 0.029
UniProt Q9UHD8 and related entries	1.02 ± 0.052	1.03 ± 0.065
UniProt Q9UIB8 and related entries	0.9855 ± 0.0015	0.957 ± 0.053
ZMIZ1 (UniProt Q9ULJ6)	1.03 ± 0.12	1.07 ± 0.19

Target	NP40-soluble protein abundance (concentration: 0.1mM)	NP40-soluble protein abundance (concentration: 0.5mM)
UniProt Q9P2N6-3	1.03 ± 0.054	1.04 ± 0.11
UniProt Q9UEW8 and related entries	1 ± 0.035	1.05 ± 0.083
RBM27 (UniProt Q9P2N5)	1.04 ± 0.018	1.39 ± 0.035
UBQLN2 (UniProt Q9UHD9)	0.876 ± 0.088	0.845 ± 0.12
RNF7 (UniProt Q9UBF6)	1.19 ± 0.25	0.956 ± 0.076
UniProt Q9UPU7 and related entries	1.04 ± 0.023	1.01 ± 0.061
CHD7 (UniProt Q9P2D1)	1.03 ± 0.045	1.01 ± 0.1
UniProt Q9UN86-2|Q9UN86	1.02 ± 0.022	1.09 ± 0.078
UniProt Q9UBP0 and related entries	1.01 ± 0.028	1.01 ± 0.024
CROT (UniProt Q9UKG9)	1.07 ± 0.15	1.04 ± 0.023
UXT (UniProt Q9UBK9)	0.941 ± 0.082	0.9605 ± 0.0025
VPS51 (UniProt Q9UID3)	1.02 ± 0.028	1 ± 0.023
RUVBL2 (UniProt Q9Y230)	1.05 ± 0.015	1.11 ± 0.035
PPIE (UniProt Q9UNP9)	1.006 ± 0.01	1.04 ± 0.023
UniProt Q9UGP4 and related entries	1.02 ± 0.036	1.02 ± 0.03
MED13 (UniProt Q9UHV7)	1.2 ± 0.11	1.13 ± 0.091
PEF1 (UniProt Q9UBV8)	0.834 ± 0.12	0.789 ± 0.19
TMEM181 (UniProt Q9P2C4)	1.03 ± 0.055	0.963 ± 0.059
NDUFA12 (UniProt Q9UI09)	0.953 ± 0.072	0.994 ± 0.081
CCNL1 (UniProt Q9UK58)	1.04 ± 0.034	1.11 ± 0.076
RAB21 (UniProt Q9UL25)	0.945 ± 0.027	0.966 ± 0.0098
UniProt Q9UER7 and related entries	0.959 ± 0.057	0.939 ± 0.062
SWAP70 (UniProt Q9UH65)	1 ± 0.027	1.01 ± 0.071
GNPTG (UniProt Q9UJJ9)	0.983 ± 0.12	0.93 ± 0.14

Fetched one by one from the entries so far, four records:
Target	NP40-soluble protein abundance (concentration: 0.1mM)	NP40-soluble protein abundance (concentration: 0.5mM)
SWAP70 (UniProt Q9UH65)	1 ± 0.027	1.01 ± 0.071
RUVBL2 (UniProt Q9Y230)	1.05 ± 0.015	1.11 ± 0.035
UniProt Q9P2N6-3	1.03 ± 0.054	1.04 ± 0.11
RNF7 (UniProt Q9UBF6)	1.19 ± 0.25	0.956 ± 0.076

Rewritten in CSV form: part of the list above
Target,NP40-soluble protein abundance (concentration: 0.1mM),NP40-soluble protein abundance (concentration: 0.5mM)
UniProt Q9Y250 and related entries,1.02 ± 0.067,1 ± 0.088
UniProt Q9UPT9 and related entries,1.02 ± 0.051,1.04 ± 0.03
TBK1 (UniProt Q9UHD2),1.04 ± 0.048,1.03 ± 0.06

Continuation.

Target	NP40-soluble protein abundance (concentration: 0.1mM)	NP40-soluble protein abundance (concentration: 0.5mM)
MRC2 (UniProt Q9UBG0)	0.977 ± 0.057	0.972 ± 0.035
POMP (UniProt Q9Y244)	0.892 ± 0.076	0.849 ± 0.11
CFL2 (UniProt Q9Y281)	0.939 ± 0.034	0.906 ± 0.072
UniProt Q9UN36 and related entries	0.988 ± 0.018	0.962 ± 0.022
ABT1 (UniProt Q9ULW3)	1.02 ± 0.069	0.986 ± 0.051
TRAPPC4 (UniProt Q9Y296)	1 ± 0.072	0.97 ± 0.013
PFDN2 (UniProt Q9UHV9)	0.898 ± 0.081	0.872 ± 0.11
UniProt Q9Y282 and related entries	1.02 ± 0.03	0.997 ± 0.033
UniProt Q9UKW4 and related entries	1.06 ± 0.096	1.06 ± 0.076
UniProt Q9UBC3 and related entries	1.07 ± 0.066	1.3 ± 0.1
UniProt Q9UHQ4 and related entries	1.02 ± 0.076	1 ± 0.063
UniProt Q9P287 and related entries	0.976 ± 0.033	1.01 ± 0.016
CTTNBP2NL (UniProt Q9P2B4)	0.998 ± 0.034	0.952 ± 0.023
UniProt Q9UG22	1.01 ± 0.03	1.031 ± 0.0073
UBQLN1 (UniProt Q9UMX0)	0.879 ± 0.11	0.851 ± 0.12
NXF1 (UniProt Q9UBU9)	1.01 ± 0.023	1.02 ± 0.047
UniProt Q9ULX6 and related entries	0.946 ± 0.032	0.981 ± 0.096
UniProt Q9UNS1 and related entries	1.01 ± 0.031	1.01 ± 0.041
STX8 (UniProt Q9UNK0)	0.908 ± 0.11	0.847 ± 0.13
UniProt Q9UJX6 and related entries	1.03 ± 0.045	1.033 ± 0.0063
UniProt Q9UPW0 and related entries	0.963 ± 0.075	0.964 ± 0.044
UniProt Q9UEE5	1.05 ± 0.1	1.15 ± 0.1
RAB23 (UniProt Q9ULC3)	1.05 ± 0.022	1.02 ± 0.054
UniProt Q9ULR0 and related entries	0.961 ± 0.069	0.969 ± 0.044

Target	NP40-soluble protein abundance (concentration: 0.1mM)	NP40-soluble protein abundance (concentration: 0.5mM)
SARDH (UniProt Q9UL12)	1.03 ± 0.028	1.06 ± 0.055
CHMP2B (UniProt Q9UQN3)	1.07 ± 0.08	1.12 ± 0.041
UniProt Q9UL40 and related entries	0.976 ± 0.044	0.972 ± 0.076
ZHX1 (UniProt Q9UKY1)	1.02 ± 0.088	1.06 ± 0.014
EXTL2 (UniProt Q9UBQ6)	1.02 ± 0.029	0.982 ± 0.064
UniProt Q9UI30	0.993 ± 0.12	0.965 ± 0.11
UniProt Q9UKZ1	1.02 ± 0.028	1.05 ± 0.024
STOML2 (UniProt Q9UJZ1)	0.968 ± 0.046	1.01 ± 0.058
UniProt Q9UPZ3 and related entries	1.01 ± 0.028	1.03 ± 0.072
VTI1B (UniProt Q9UEU0)	0.959 ± 0.042	0.9834 ± 0.0074
CPSF2 (UniProt Q9P2I0)	0.991 ± 0.018	1.08 ± 0.04
ZC3H4 (UniProt Q9UPT8)	0.983 ± 0.021	0.99 ± 0.037
SLC39A10 (UniProt Q9ULF5)	0.971 ± 0.025	0.942 ± 0.047
MINPP1 (UniProt Q9UNW1)	0.99 ± 0.027	1 ± 0.014
DICER1 (UniProt Q9UPY3)	1.02 ± 0.027	1.02 ± 0.027
RERE (UniProt Q9P2R6)	1.01 ± 0.025	0.996 ± 0.044
UniProt Q9UKV8	1.06 ± 0.051	1.04 ± 0.031
AMFR (UniProt Q9UKV5)	1.06 ± 0.018	1 ± 0.043
USP24 (UniProt Q9UPU5)	1.02 ± 0.047	1.03 ± 0.024
DHCR7 (UniProt Q9UBM7)	1.01 ± 0.048	0.977 ± 0.029
UniProt Q9P2K3-3	0.943 ± 0.063	0.978 ± 0.04
UniProt Q9UI12 and related entries	1.01 ± 0.032	1.04 ± 0.059
RCC2 (UniProt Q9P258)	1.05 ± 0.074	1.04 ± 0.039
FAM8A1 (UniProt Q9UBU6)	1.01 ± 0.06	1 ± 0.08

Target	NP40-soluble protein abundance (concentration: 0.1mM)	NP40-soluble protein abundance (concentration: 0.5mM)
SNX6 (UniProt Q9UNH7)	0.9667 ± 0.0081	1.02 ± 0.07
FKBPL (UniProt Q9UIM3)	0.965 ± 0.046	0.938 ± 0.063
ASF1A (UniProt Q9Y294)	1.08 ± 0.12	1.07 ± 0.082
UniProt Q9UIG0 and related entries	0.988 ± 0.01	0.994 ± 0.032
UniProt Q9UM21	1.04 ± 0.062	1.09 ± 0.067
UniProt Q9UGQ2 and related entries	1.03 ± 0.14	1.07 ± 0.011
TPX2 (UniProt Q9ULW0)	1.01 ± 0.019	1.139 ± 0.011
SEC63 (UniProt Q9UGP8)	1.01 ± 0.056	1.03 ± 0.049
GINS2 (UniProt Q9Y248)	0.945 ± 0.047	0.941 ± 0.054
UniProt Q9UJY5 and related entries	0.97 ± 0.059	0.979 ± 0.04
UniProt Q9UDY2 and related entries	1.14 ± 0.035	1.17 ± 0.054
AK3 (UniProt Q9UIJ7)	0.93 ± 0.019	0.933 ± 0.048
MRTO4 (UniProt Q9UKD2)	1 ± 0.068	1.1 ± 0.051
RUVBL1 (UniProt Q9Y265)	1.04 ± 0.014	1.13 ± 0.049
SAE1 (UniProt Q9UBE0)	0.994 ± 0.064	1.01 ± 0.044
SLC5A6 (UniProt Q9Y289)	0.962 ± 0.0049	0.969 ± 0.033
UniProt Q9UI26 and related entries	1.05 ± 0.058	1.08 ± 0.059
UniProt Q9UI08-2|Q9UI08	0.9613 ± 0.0085	0.951 ± 0.016
UniProt Q9UQC2 and related entries	0.932 ± 0.045	0.98 ± 0.094
UniProt Q9P2A4 and related entries	1 ± 0.021	1.022 ± 0.0087
UniProt Q9UJX5 and related entries	1 ± 0.055	0.994 ± 0.049
PSMC3IP (UniProt Q9P2W1)	0.951 ± 0.076	0.935 ± 0.048
PPM1H (UniProt Q9ULR3)	1.03 ± 0.063	1.06 ± 0.06
CGN (UniProt Q9P2M7)	1.057 ± 0.004	1.11 ± 0.048

Source: the supplement of paper PMC6411743
